The results in this text go back to article PMC11939259, “Antiparasitic and Antifungal Activities of Cetyl-Maritima, a New N-Cetyl-Modified Maritima Derivative” (Antibiotics, 2025).

In the experiment the test system is M. mycetomatis fungal strain MM55. The experiment is described as follows: M. mycetomatis MM55 in vitro susceptibility, MTS metabolic activity. The class given is cell-based, Madurella mycetomatis. As to the method:
The M. mycetomatis MM55 isolate obtained from a patient and identified and maintained in the Erasmus Medical Centre, Rotterdam, The Netherlands, was applied for the investigation of the in vitro susceptibility of the test compounds as reported previously. In short, the fungal isolate was cultured on Sabouraud agar for 2 weeks at 37 °C, after which the mycelium was transferred in colorless RPMI 1640 medium supplemented with L-glutamine (0.3 g/L; Capricorn-Scientific, Ebsdorfergrund, Germany), morpholinepropanesulfonic acid (MOPS, 20 mM, Sigma, St. Louis, MO, USA), and chloramphenicol (100 mg/L, Oxoid, Basingstroke, UK). […] Pharmacia Biotech, Uppsala, Sweden). Then, 100 μL of the suspension was added to each well of a 96-wells plate (Costar 3799, Fisher Scientific, Breda, The Netherlands) that contained 1 μL of each compound sample. […] The following formula was used: […] The negative control (NC) is medium only and 0% metabolic activity was noted.

Each structure is given as a SMILES string.

With `CCCCCCCCCCCCCCCC[n+]1ccccc1` [CPBr, Cetylpyridinium bromide], the “Metabolic activity upon treatment at 25 μM” value (25 μM, ± SD) was 7.9 ± 1.5%. Besides, where the note is “100 μM, ± SD”, the “Metabolic activity upon treatment at 100 μM” value is listed as 4.0 ± 0.8%. In addition, half-maximal inhibition (Madurella mycetomatis) (IC50) was put at 16 µM.
